Assay results from the supplement of paper PMC7024190.
Some of the results follow. This data set is noisy: repeats of one test often differ as much as different tests do.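 A first-round screen of about ten thousand compounds sought those raising reporter output, using human embryonic kidney cells briefly transfected with a plasmid carrying a Renilla luciferase gene driven by the HSV-TK promoter.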

System: HEK 293FT
Experiment: log relative Renilla luciferase luminescence (reporter expression vs reference, reference not stated) (log (base not stated)); higher = higher recombinant reporter expression
Details: 10 µM; time after transfection 48 h
Description: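 HEK 293FT cells transiently transfected with pRL-TK (Renilla luciferase) were treated with compounds at 10 uM and luminescence was read about 42 h later. Values are log relative Renilla luminescence (log base and reference not stated). Single-pass screen; ICCB Known Bioactives library.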

| SMILES | log |
| --- | --- |
| C/C=C/C/C=C/CCC(=O)[C@H]1O[C@H]1C(N)=O [Cerulenin] | -0.185 |
| CN(C)C(=O)C(CCN1CCC(O)(c2ccc(Cl)cc2)CC1)(c1ccccc1)c1ccccc1 [Loperamide] | 0.216 |
| C=CCNC1=C2C[C@@H](C)C[C@H](OC)[C@H](O)[C@@H](C)/C=C(\C)[C@H](OC(N)=O)[C@@H](OC)/C=C\C=C(/C)C(=O)NC(=CC1=O)C2=O [17-Allylamino-geldanamycin] | -0.514 |
| Cn1cnc2c(NCc3ccccc3)nc(NCCO)nc21 [Olomoucine] | -0.531 |
| COc1ccc([C@H]2Sc3ccccc3N(CCN(C)C)C(=O)[C@H]2OC(C)=O)cc1 [L-cis-Diltiazem] | 0.0263 |
| COc1ccc2c(c1)c(CC(=O)N1CCOCC1)c(C)n2C(=O)c1ccc(Cl)cc1 | 0.239 |
| CCCC[C@@H](C=O)NC(=O)[C@H](CC(C)C)NC(=O)[C@H](CC(C)C)NC(C)=O | -0.176 |
| CC[C@H]1[C@@H]2C=C[C@@H]3[C@H]4C/C=C\C(=O)NCCC[C@@H]5NC(=O)C(=C5O)C(=O)CC[C@@H]4C[C@@H]3[C@H]2C[C@H]1C [Ikarugamyin] | -0.0907 |
| O=C(O)c1ccccc1Nc1ccccc1 [N-Phenylanthranilic acid] | 0.205 |
| CN1C(C(=O)Nc2ccccn2)=C(O)c2ccccc2S1(=O)=O [Piroxicam] | -0.374 |
| O=C[C@@H]1CCCN1C(=O)[C@@H]1CCCN1C(=O)OCc1ccccc1 [Z-Prolyl-prolinal] | 0.203 |
| CCCCC/C=C\C/C=C\C/C=C\C/C=C\CCCC(=O)O[C@H](COCCCCCCCCCCCCCCCC)COP(=O)([O-])OCC[N+](C)(C)C [Arachidonoyl-PAF] | 0.161 |
| OC[C@@H]1NC[C@@H](O)[C@H](O)[C@H]1O [Deoxynorjrimycin(1)] | 0.373 |
| CCCCC/C=C\C/C=C\C/C=C\CCCCCCC(=O)O [Dihomo-gamma-linolenic acid] | -0.281 |
| CCCCC/C=C\C[C@@H](O)/C=C/c1cccc(C[C@@H](O)CCCCO)n1 | -0.0782 |
| CCN(CC)CC(=O)Nc1c(C)cccc1C [Lidocaine] | 0.0206 |
| CCCCCC(O)C=CC1C(O)CC(O)C1CC=CCCCC(=O)O (stereo not drawn) [9beta,11alpha-Prostaglandin F2] | -0.0928 |
| Cn1cc(C2=C(c3cn(CCCSC(=N)N)c4ccccc34)C(=O)NC2=O)c2ccccc21 | -1.03 |
| CC(C)[C@@H](O)CC[C@@H](C)[C@H]1CC[C@H]2[C@@H]3CC=C4C[C@@H](O)CC[C@]4(C)[C@H]3CC[C@]12C [24(S)-Hydroxycholesterol] | 0.318 |
| CCOC(=O)C1=C(N)Oc2ccc(Br)cc2C1C(C#N)C(=O)OCC (stereo not given) | 0.0421 |

Quoted from the entries so far, two compounds:

| SMILES | log |
| --- | --- |
| CC(C)[C@@H](O)CC[C@@H](C)[C@H]1CC[C@H]2[C@@H]3CC=C4C[C@@H](O)CC[C@]4(C)[C@H]3CC[C@]12C [24(S)-Hydroxycholesterol] | 0.318 |
| CCOC(=O)C1=C(N)Oc2ccc(Br)cc2C1C(C#N)C(=O)OCC (stereo not given) | 0.0421 |

Continued.

| SMILES | log |
| --- | --- |
| O[C@H]1[C@H]2c3cc4c(cc3CN3CCC(=C[C@@H]1O)[C@H]23)OCO4 [Lycorine] | -1.56 |
| CC(C)C[C@H](NC(=O)[C@@H](O)[C@H](N)Cc1ccccc1)C(=O)O [Bestatin] | 0.254 |
| CC(C)(C)c1cc(O)c(C(C)(C)C)cc1O [2,5-Ditertbutylhydroquinone] | -1.27 |
| CCCCC/C=C\C=C\[C@@H](O)CCCCCCCC(=O)O | -0.0126 |
| O=C(O)CCCC=CCC1C(=O)CC(O)C1C=CC(O)CCc1ccccc1 (stereo not given) [17-Phenyl-trinor-prostaglandin E2] | 0.14 |
| CC(N/C(=N\C#N)Nc1ccncc1)C(C)(C)C (stereo not given) [Pinacidil] | 0.166 |
| CN(C)c1ccc(/C=C2/C(=O)Nc3ccccc32)cc1 | -0.479 |
| C[C@@H]1C[C@H]2[C@@H]3CCC4=CC(=O)C=C[C@]4(C)[C@@]3(F)[C@@H](O)C[C@]2(C)[C@@]1(O)C(=O)CO [Dexamethasone] | 0.226 |
| O=C(NCCCCCCNC(=O)ON=C1CCCCC1)ON=C1CCCCC1 | -1.1 |
| Clc1cccc(Nc2nnc(-c3ccccc3)c3ccccc23)c1 | -0.428 |
| Nc1ccc2c3c(cccc13)C(=O)NC2=O [Amino-1,8-naphthalimide [4-Amino-1,8-naphthalimide]] | -0.692 |
| COC1=C2C[C@@H](C)C[C@H](OC)[C@H](O)[C@@H](C)/C=C(\C)[C@H](OC(N)=O)[C@@H](OC)/C=C\C=C(/C)C(=O)NC(=CC1=O)C2=O [Geldanamycin] | 0.21 |
| CC/C=C\C/C=C\C/C=C\CCCCCCCC(=O)O [Linolenic acid (18:3 n-3)] | -0.171 |
| CCCNCC(O)COc1ccccc1C(=O)CCc1ccccc1 (stereo not given) [Propafenone] | 0.137 |
| CCCCC/C=C\C[C@@H](O)/C=C/C=C\C/C=C\CCCC(=O)O | -0.14 |
| O=S(=O)(c1cccc2cnccc12)N1CCCNCC1 | 0.309 |
| CCCCC/C=C\C/C=C\CCCCCCCCCC(=O)O [Eicosadienoic acid (20:2 n-6)] | -0.229 |
| CCCCC[C@H](O)/C=C/[C@H]1[C@H](O)CC(=O)[C@@H]1C/C=C\CCCC(=O)O [Prostaglandin E2] | -0.0792 |
| CCOC(=O)C1=C(C)NC(=S)NC1c1cccc(O)c1 (stereo not given) [Monastrol] | 0.342 |
| CC(/C=C/C(=O)NO)=C\[C@@H](C)C(=O)c1ccc(N(C)C)cc1 [Trichostatin-A] | -0.146 |
